The values below come from PMC9911603.

This series deals with His-GacA (Pseudomonas mosselii 923). Briefly: EMSA. The settings on record: EMSA on 4.5% nondenaturing polyacrylamide gel, Cy5 detection; binding buffer, pH and temperature not given; recombinant protein; protein details: His (pET28a, NdeI/XhoI). A general note: In EMSA bound probe runs differently from free probe, usually more slowly.

Construct, isoform or probe ends are uncertain for at least one entry.

For the sequence “GACGAGTAAGCGAATGCTTACACGCGATGCTACGAGGGTG (double strand) [PrsmZ probe (rsmZ promoter, 40 bp)]”, the binding result is “binds”.
Turning to “GTCGTGTAAGCCAAAGCTTACAAAAGCAGTCCTTGCACAA (double strand) [PrsmY probe (rsmY promoter, 40 bp)]”, the binding result is recorded as “binds”.
